Experimental data published in article PMC6901946, “Intranasal MMI-0100 Attenuates Aβ1−42- and LPS-Induced Neuroinflammation and Memory Impairments via the MK2 Signaling Pathway” (Frontiers in Immunology, 2019).

Columns and labels:
Kunming mice [1] = assay: Object location recognition (OLR) task; type: in vivo, mouse; conditions: mean ± SEM
Procedure: (§1) MMI-0100 or vehicle was infused into the brain by using a 32-gauge stainless steel syringe needle placed in and projecting 0.5 mm below the tip of the cannula for 2 min. This needle was connected via a PE tube to a 5-μl Hamilton syringe mounted to a Microdrive pump (KD Scientific). To allow the drug to diffuse, the infusion syringe remained in place for 1 min. For the lateral ventricle, injection volume is 2 μl, and for the bilateral hippocampus CA1, injection volume is 0.5 μl/side. After drug administration, each mouse was subjected to behavioral testing immediately. In addition, the selection of the doses was based on the previous reports and our preliminary observations ([24]).
(§2) The behavior experiments were carried out 15 min after i.c.v. injection of MMI-0100, or 2 h after intranasal infusion of MMI-0100. The cytokines were measured 15 min after i.c.v. injection of MMI-0100.
The procedures for the novel object recognition (NOR) and object location recognition (OLR) tasks were described in our previous report ([23], [30]). The videos for NOR and OLR tasks were shown in Supplementary Material. […] The discrimination index (DI) in the memory retention phase was calculated as the percentage of the time a mouse explored the new object or location over the total time the mouse explored the two objects or locations. […]

Kunming mice [2] = assay: Novel object recognition (NOR) task; type: in vivo, mouse; conditions: mean ± SEM
Procedure: as §1, §2
The procedures for the novel object recognition (NOR) and object location recognition (OLR) tasks were described in our previous report ([23], [30]). The videos for NOR and OLR tasks were shown in Supplementary Material. Briefly, the procedure of NOR and OLR tasks consisted of two sessions: the training phase and the test phase, and the time elapsed between the training and test phases is 24 h. Each mouse was tested in its home cage in a sound-attenuated room with dim lighting. Each mouse was handled for 3 min per day for three consecutive days prior to training. In our experiments, all objects were made of plastic or glass and were similar in sizes (4–5 cm high) but different in color and shape. There were several copies of each object used interchangeably. The objects were cleaned thoroughly between trials to avoid olfactory cues. Exploration was defined as sniffing or touching the object with the nose or forepaws. Resting against or moving around the object was not considered exploratory behavior. The discrimination index (DI) in the memory retention phase was calculated as the percentage of the time a mouse explored the new object or location over the total time the mouse explored the two objects or locations. […] We found no significant difference between treatments in the duration of exploration of the objects during the training phase, as well as in the duration and the total exploration time (TET) during the memory retention phase (Table 1).
In the training phase, two identical objects were placed on opposite sides of the home cage. The training trial was ended when the mouse had explored the two identical objects for 10 s within 5 min. […] In the test phase, a novel object, and a familiar object from the training trial were placed in the same positions as in the training phase, and the test phase lasted for 5 min. The test phase was ended when the mouse had explored the two objects for a total of 25 s, or after 5 min had passed, the test phase was terminated.

[3] = Figure 2A, Aβ1−42 800 pmol i.c.v., MMI-0100 5 nmol i.c.v. or vehicle
[4] = Figure 2B, Aβ1−42 200 pmol iCA1, MMI-0100 1 nmol iCA1 or vehicle

## Aβ1−42: Aβ1−42 peptide purchased from Hangzhou Chinese Peptide Biochemical Company, oligomer used to induce AD model
Kunming mice [1]; Figure 3A, Aβ1−42 800 pmol i.c.v., MMI-0100 5 nmol i.c.v. or vehicle
  TET in test phase: 16.9 ± 1.4
Kunming mice [1]; Figure 3B, Aβ1−42 200 pmol iCA1, MMI-0100 1 nmol iCA1 or vehicle
  TET in test phase: 15.2 ± 0.9
Kunming mice [2]; [3]
  Duration of test phase: 300 ± 0 300 ± 0
  Duration of training phase: 184.5 ± 10.2
  TET in test phase: 17.2 ± 1.5
Kunming mice [2]; [4]
  Duration of test phase: 300 ± 0
  Duration of training phase: 195.1 ± 16.7
  TET in test phase: 20.6 ± 1.4
